Experimental data: article PMC5765116
Results are given in words; binding and its absence hold for the method and conditions named. In cells and extracts the contact can be indirect. Some binding calls cover weakened binding; strength is not graded here.

The chains behind the UniProt entries cited, without tags or fusion partners.
UniProt P10415: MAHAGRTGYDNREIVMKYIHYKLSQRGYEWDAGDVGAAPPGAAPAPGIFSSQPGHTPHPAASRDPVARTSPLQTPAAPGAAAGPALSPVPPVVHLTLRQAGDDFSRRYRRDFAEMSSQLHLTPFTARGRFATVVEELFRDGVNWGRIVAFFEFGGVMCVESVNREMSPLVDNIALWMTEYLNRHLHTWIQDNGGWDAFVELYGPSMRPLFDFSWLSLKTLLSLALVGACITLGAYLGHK
UniProt Q14457: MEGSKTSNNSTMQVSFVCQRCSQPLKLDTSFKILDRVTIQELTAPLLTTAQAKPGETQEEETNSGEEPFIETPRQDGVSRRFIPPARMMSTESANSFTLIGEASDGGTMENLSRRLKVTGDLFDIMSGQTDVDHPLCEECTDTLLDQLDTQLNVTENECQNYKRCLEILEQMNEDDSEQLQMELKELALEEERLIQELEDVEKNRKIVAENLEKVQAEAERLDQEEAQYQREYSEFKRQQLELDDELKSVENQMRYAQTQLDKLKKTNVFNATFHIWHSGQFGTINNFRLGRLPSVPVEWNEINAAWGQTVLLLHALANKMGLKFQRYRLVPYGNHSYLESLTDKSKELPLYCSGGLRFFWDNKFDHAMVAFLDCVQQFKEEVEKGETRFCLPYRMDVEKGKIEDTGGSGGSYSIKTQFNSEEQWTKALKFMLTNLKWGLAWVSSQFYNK

Biological target: Bcl-2 (human (endogenous in Huh7)) (UniProt P10415)
Assay: co-IP

binding: binds
Substance: Beclin 1 (from UniProt Q14457 1-450)
